# The campaign covered roughly 320,000 compounds. About 2,100 (0.66%) were called active. The inconclusive results got no clear call from the source; some entries with a clear call stand among them for comparison. The call rests on the fitted dose curve; in most records, active means well fitted inhibition curve with a large enough effect in the signal ratio, with a control signal flat (not every such curve was filed as active); inconclusive means small, poorly fitted or top-dose-only effect, or effect the other way, or a change in a side signal; inactive means flat fitted curve, though single readings scatter; the % refers to the signal ratio. Potencies beside an inconclusive call are fits to weak or partial responses and may not hold up.
# Assay: qHTS Assay for Lipid Storage Modulators in Drosophila S3 Cells
# Conditions: BODIPY lipid droplet fluorescence, 18-24 h, cells fed with added oleic acid; lipid storage change, negative = inhibition: at 46.1 µM (top of the series) unless noted
# Procedure, shortened: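 Drosophila S3 cells got compounds at several concentrations plus oleic acid (400 uM solution). Laser-scanning cytometry with 488 nm excitation read lipid droplets at 500-530 nm and cells at 575-640 nm. Percent activity was relative to 20 uM Triacsin C.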
# On the % scale 0 is the no-effect control and ±100 the full control effect; potency means the concentration at half of the fitted maximal effect.
Structure (SMILES),Potency,"lipid storage change, negative = inhibition"
CC(C)(C)OC(=O)NCCCCCNC(=O)c1[nH]cnc1C(=O)Nc1nccs1,"inconclusive: 1160 nM [falling, single point]",
Nc1nc(SCC(=O)NCCO)nc2sc3c(c12)CCCC3,,inconclusive: 33.1%
CC(C)CC1NC(=O)N(CC(=O)Nc2ccc(OCc3ccccc3)cc2)C1=O (stereo unspecified),,inconclusive
CN(c1ccccc1C(=O)Nc1ccc(S(=O)(=O)N2CCOCC2)cc1)S(C)(=O)=O,"inconclusive: 73.1 nM [activator, full curve]",
Cc1c(C(=O)c2ccc(N(C)C)cc2)c2ccccn2c1CCC#N,,inconclusive: 15.3%
CCOC(=O)C1(CC2CCCCO2)CCN(Cc2cc3ccccc3[nH]2)CC1 (stereo unspecified),,inconclusive: 1.11%
CN(C)Cc1c(C(=O)N/N=C/c2cccc3ccccc23)nnn1-c1nonc1N,,inconclusive: -37.3%
N#Cc1nc(COc2ccccc2)oc1N1CCN(c2cccc(Cl)c2)CC1,,inconclusive: 67.6%
O=C(/C=C/c1cccc([N+](=O)[O-])c1)NCCSCc1cccc(Cl)c1,,inconclusive: 14.8%
COC(=O)c1ccccc1NC(=O)CN(Cc1ccccc1)S(C)(=O)=O,,inconclusive: 57.7%
C[N+](C)(C)CCOc1ccc([N+](=O)[O-])cc1,,inconclusive: 0.886%
COC(=O)/C=C1\S/C(=N/NC(=O)c2ccc(OC)cc2)NC1=O,,inconclusive: 2.75%
CSc1nnc(-c2ccc(S(=O)(=O)N3CCOCC3)cc2)n1C,,inconclusive: -14.7%
N#CCCN=C(NS(=O)(=O)c1ccccc1)c1ccccc1,"inconclusive: 1160 nM [activator, single point]",
CCOCCN1CCN(c2c(CC)c(C)nc3cc(-c4cc(OC)cc(OC)c4)nn23)CC1,,inconclusive: -26.6%
CCC(C(=O)NCCC(C)C)n1ccc2cc(S(=O)(=O)N3CCCCC3)ccc21 (stereo unspecified),"inconclusive: 2310 nM [falling, single point]",
CC1CCC(NC(=O)CN(C)S(=O)(=O)c2cccc3cccnc23)CC1 (stereo unspecified),,inconclusive: 33.4%
CC(=O)N1c2ccc(S(=O)(=O)N3CCC(C(=O)N4CC(C)CC(C)C4)CC3)cc2CC1C (stereo unspecified),,inconclusive: -20.3%
O=C(N/N=C/c1cccnc1)c1ccc(NC(=O)C(c2ccccc2)c2ccccc2)cc1,"inconclusive: 3660 nM [falling, full curve, poor fit]",
CN1C(C(=O)Nc2ccc(F)cc2F)=CC(c2cccs2)=NS1(=O)=O,,inactive
CN(CC(=O)NCC1CCCCC1)S(=O)(=O)c1ccc(Cl)cc1,"inconclusive: 25900 nM [activator, single point]",
COc1cccc(OCCOc2ccccc2OC(C)C)c1,"inconclusive: 461 nM [activator, full curve, poor fit]",
CCC(=O)N1CCc2cc(S(=O)(=O)Nc3ccccc3C)ccc21,,inconclusive: -88.8%
CC1(C)CNC(=O)c2sc(N3CCCCC3)nc2C1,,inconclusive: 68.4%
COc1ccccc1CNC(=O)Cn1cccc1,,inconclusive: 5.5%
Cc1ccc(-c2nn3c(C)nnc3c3ccccc23)cc1S(=O)(=O)NC(C)c1ccccc1 (stereo unspecified),,inconclusive: -29.2%

# A draw from above in order of count of non-hydrogen atoms, largest number first.
Structure (SMILES),Potency,"lipid storage change, negative = inhibition"
CCOCCN1CCN(c2c(CC)c(C)nc3cc(-c4cc(OC)cc(OC)c4)nn23)CC1,,inconclusive: -26.6%
CCC(C(=O)NCCC(C)C)n1ccc2cc(S(=O)(=O)N3CCCCC3)ccc21 (stereo unspecified),"inconclusive: 2310 nM [falling, single point]",
CC1CCC(NC(=O)CN(C)S(=O)(=O)c2cccc3cccnc23)CC1 (stereo unspecified),,inconclusive: 33.4%
COc1cccc(OCCOc2ccccc2OC(C)C)c1,"inconclusive: 461 nM [activator, full curve, poor fit]",

# The list continues:

Structure (SMILES),Potency,"lipid storage change, negative = inhibition"
CC1(C)Cc2cccc(Oc3cc(NN4CCCCC4)c([N+](=O)[O-])cc3[N+](=O)[O-])c2O1,"inconclusive: 6.5 nM [falling, full curve, poor fit]",
O=C(NCCS(=O)(=O)NCc1ccccc1Cl)c1ccccc1,,inconclusive: -8.49%
CCOC(=O)C1=C(CN2CCCCCC2)NC(=O)NC1c1ccc2c(c1)OCO2 (stereo unspecified),,inconclusive: -21.1%
COc1ccc2nc(SCC(=O)Nc3ccc(S(=O)(=O)N4CCCC4)cc3)c(C#N)cc2c1,"inconclusive: 6510 nM [activator, single point]",
CC(C)c1ccc(NC(=O)CSc2nc3ccccc3nc2N2CCCC2)cc1,,inconclusive: -7.03%
COCC(=O)Nc1ccc(OCc2ccccc2)cc1,,inactive
CCCCC(=O)Nc1nnc(SCC(=O)NC2CC2)s1,,inconclusive: 154%
CSc1nc2c(cc1C#N)CCC2,,inconclusive: 30.4%
O=C1CC(=O)N(c2ccccc2)N1c1ccccc1,"inconclusive: 32600 nM [falling, single point]",
COc1ccc(C(=O)COC(=O)c2ccccc2C(=O)N(C)c2ccccc2)c(OC)c1,,inconclusive
COc1ccc2[nH]c3c(c2c1)CCN1C(=O)N([C@@H](C)C(=O)NC2CCCC2)C(=O)[C@]31C,,inconclusive: 54.5%
CC(C(=O)NC1CCCCCC1)c1ccc([N+](=O)[O-])cc1 (stereo unspecified),,inconclusive: -16.1%
CCOC(=O)C1=C(COC(=O)/C=C/c2ccccc2Cl)NC(=O)NC1C (stereo unspecified),,inconclusive: -35.3%
Cc1ccc(S(=O)(=O)N2CCC(=O)N(CCOC(=O)Nc3ccccc3C)CC2)cc1,"inconclusive: 2590 nM [activator, partial curve]",
CC(=O)Nc1ccc(-c2nn[nH]n2)cc1,,inconclusive: 8.71%
C=C1CSc2nc(=O)c3c(C)c(C)sc3n21,,inconclusive: 70.9%
CC1CCCC(N2CCN(C(=O)c3ccc([N+](=O)[O-])cc3)CC2)C1 (stereo unspecified),,inconclusive: 9.17%
COC(=O)c1ccc(OC(=O)CN2C(=O)c3ccccc3C2=O)cc1,,inconclusive: 157%
CC(C)=CC(=O)Nc1ccccc1Br,"inconclusive: 3260 nM [falling, full curve]",
Cc1cccc2c1OCC/C2=N\NC(=O)COc1ccccc1Cl,"inconclusive: 29100 nM [falling, partial curve, poor fit]",
CC12C=CC(=O)C=C1CCC1C3CCC(O)(C(=O)CO)C3(C)CC3OC312 (stereo unspecified),,inconclusive: 13.7%
S=c1[nH]nc(C2CCCCC2)n1/N=C/C=C/c1ccccc1,,inconclusive: -26%
O=C(CSc1ncnc2nc[nH]c12)c1ccc2ccccc2c1,,inconclusive: -12.4%
COc1ccc2nc(SCC(=O)NC3CCCCC3C)[nH]c2c1 (stereo unspecified),active: 29100 nM,
CCC(C)(C)NC(=O)CN(C(=O)c1snc(C(N)=O)c1N)c1ccc2c(c1)OCO2,"inconclusive: 2060 nM [rising, full curve]",

# — PubChem BioAssay AID2685 (National Center for Advancing Translational Sciences (NCATS), 2010)
